Reference: paper PMC10053439
These are yes or no findings as the source states them, for the method shown. Binding calls can cover weak binding; strength is not graded here.

Sequences of proteins named here, by UniProt entry; tags and fusion partners are left off. A change or cut given only in a name is not applied to a line headed by its entry. Residues count along the entry.
UniProt Q96RL7, residues 1869-2481: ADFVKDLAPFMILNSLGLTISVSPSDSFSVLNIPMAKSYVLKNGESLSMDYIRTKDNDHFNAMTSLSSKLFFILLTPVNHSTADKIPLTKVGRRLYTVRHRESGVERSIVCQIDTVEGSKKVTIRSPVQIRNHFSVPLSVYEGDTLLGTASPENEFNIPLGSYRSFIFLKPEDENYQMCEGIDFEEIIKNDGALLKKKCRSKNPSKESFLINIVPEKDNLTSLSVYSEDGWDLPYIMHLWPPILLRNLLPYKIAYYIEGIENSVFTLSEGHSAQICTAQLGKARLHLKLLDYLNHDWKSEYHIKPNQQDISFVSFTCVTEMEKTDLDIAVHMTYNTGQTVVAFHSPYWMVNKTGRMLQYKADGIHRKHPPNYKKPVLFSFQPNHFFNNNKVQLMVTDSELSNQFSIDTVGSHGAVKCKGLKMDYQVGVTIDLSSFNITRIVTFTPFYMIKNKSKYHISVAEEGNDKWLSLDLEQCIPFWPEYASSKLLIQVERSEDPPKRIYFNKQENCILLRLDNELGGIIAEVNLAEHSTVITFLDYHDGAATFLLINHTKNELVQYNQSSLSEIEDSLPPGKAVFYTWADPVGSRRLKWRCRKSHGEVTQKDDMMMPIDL
UniProt Q9Y5X3: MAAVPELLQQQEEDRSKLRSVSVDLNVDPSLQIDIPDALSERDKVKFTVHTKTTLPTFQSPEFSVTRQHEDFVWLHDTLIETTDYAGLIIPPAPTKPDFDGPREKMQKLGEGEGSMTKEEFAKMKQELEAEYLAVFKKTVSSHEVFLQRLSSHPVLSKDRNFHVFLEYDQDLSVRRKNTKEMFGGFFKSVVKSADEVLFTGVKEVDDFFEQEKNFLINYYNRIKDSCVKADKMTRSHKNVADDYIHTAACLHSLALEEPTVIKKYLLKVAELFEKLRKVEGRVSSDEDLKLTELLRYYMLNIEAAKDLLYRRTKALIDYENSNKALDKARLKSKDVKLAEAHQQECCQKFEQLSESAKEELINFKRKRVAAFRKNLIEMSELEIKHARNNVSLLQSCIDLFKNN

Target: LexA-VPS13A(VAB), LexA DNA-binding domain fusion to the VAB domain of VPS13A (human) (UniProt Q96RL7)
Experiment: two-hybrid; LexA-VPS13A(VAB) as bait, GAD-SNX5 fusions as prey in S. cerevisiae TAT7; screen of a human fetal liver cDNA library (His+ selection with 5 mM 3-AT); β-galactosidase X-gal filter lift assays developed for 2 h and liquid assays in Miller units on the same transformants

With “GAD-SNX5 truncated derivative containing only the Phox domain (from UniProt Q9Y5X3) (domain or fragment)” the binding was “binds”.
